Measured values reported in PMC10930919.
No constants are given. Whether binding was seen depends on the method and setting. In cells and extracts the contact can be indirect. Some results given as binding are weak or reduced against the parent protein; the word gives no strength. For part of these data: Where a sequence is shown, tags or fusion partners need not be part of it. One block for each binder: values may come before it.

What was measured:
[1] = target: MYC-tagged p53 (human) (UniProt P04637); experiment: co-IP; H1299 cells co-transfected with MYC-tagged p53 and HIS-tagged JDP2 (WT or truncated) or ATF3, 48 h; whole cell lysates immunoprecipitated with anti-MYC antibody, blots with anti-ATF3, anti-JDP2 or anti-HIS
[2] = target: p53 (p53 expression plasmid of Figure 2A) (human) (UniProt P04637); experiment: co-IP; H1299 cells co-transfected with p53 and JDP2 plasmids, 48 h; whole cell lysates immunoprecipitated with anti-p53 antibody, blot with anti-JDP2

- binding [1]: binds
B1: HIS-tagged activating transcription factor 3 (ATF3) (protein, UniProt P18847 1-181)
chain: MMLQHPGQVSASEVSASAIVPCLSPPGSLVFEDFANLTPFVKEELRFAIQNKHLCHRMSSALESVTVSDRPLGVSITKAEVAPEEDERKKRRRERNKIAAAKCRNKKKEKTECLQKESEKLESVNAELKAQIEELKNEKQHLIYMLNLHRPTCIVRAQNGRTPEDERNLFIQQIKEGTLQS

- binding [2]: binds
B2: Jun dimerization protein 2 (JDP2 expression plasmid of Figure 2A) (protein, UniProt Q8WYK2 1-163)
chain: MMPGQIPDPSVTTGSLPGLGPLTGLPSSALTVEELKYADIRNLGAMIAPLHFLEVKLGKRPQPVKSELDEEEERRKRRREKNKVAAARCRNKKKERTEFLQRESERLELMNAELKTQIEELKQERQQLILMLNRHRPTCIVRTDSVKTPESEGNPLLEQLEKK

- binding [1]: binds
B3: HIS-tagged Jun dimerization protein 2 (JDP2), WT (protein, UniProt Q8WYK2 1-163)
chain: B2 chain
